Experimental data: PubChem BioAssay AID1259308 (NCATS, 2017)

Aim: 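Genes whose loss raises luciferase production in HEK293 cells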 (primary screen)
Cell system: human HEK293 embryonic kidney cells stably expressing firefly luciferase (HEK-CMV-Luc2-Hygro)
Reagents: single siRNA against human genes, 0.8 pmol siRNA per well
Time to read-out: 72 h
Read-out: 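Luciferase light (ONE-Glo) measured on one replicate plate set and viability (CellTiter-Glo) on the other, scaled to a negative control siRNA, with robust z-scores and luciferase per cell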
Reading the numbers: total luciferase, z-score and total luciferase, % of control: higher = more reporter protein produced; luciferase per cell, z-score: higher = more reporter output per viable cell; viable cells, % of control: higher = more viable cells
Active means: 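Active when the median/MAD z-score for overall luciferase is greater than 3; a gene was taken forward for validation with new siRNAs if at least two of its three siRNAs passed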
Meaning of the calls: active = raised luciferase; inactive = no rise
The deposit covers about 59,000 reagents; below is a random part of them. About 1,510 of all reagents (2.6%) were called active. 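Calls use total luciferase alone and ignore viability, so some active siRNAs may act by altering cell number.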 The numbers tell different reagents against one gene apart. No sequences are given here.

gene symbol	reagent no.	total luciferase, z-score	total luciferase, % of control	luciferase per cell, z-score	viable cells, % of control	Outcome
PCDHB10	1	-0.261	76.7	-0.0447	86.7	inactive
PCDHB10	2	-0.227	77.4	-0.256	92.5	inactive
PCDHB10	3	-0.396	74	-0.496	94.2	inactive
INSIG2	1	-0.42	73.5	-1.08	109	inactive
INSIG2	2	-0.405	73.8	-0.227	87.6	inactive
INSIG2	3	-0.124	79.4	-0.488	101	inactive
KCNA6	1	-0.917	63.7	-1.03	93.4	inactive
KCNA6	2	1.46	111	0.803	100	inactive
KCNA6	3	-0.281	76.3	1.35	59.8	inactive
ZRANB1	1	1.27	107	0.396	108	inactive
ZRANB1	2	-0.577	70.4	0.19	74.8	inactive
ZRANB1	3	-0.156	78.8	-0.718	106	inactive
TMEM229A	1	0.647	94.8	0.632	89.7	inactive
TMEM229A	2	-0.0924	80	0.444	79.6	inactive
TMEM229A	3	0.478	91.4	0.396	92	inactive
PSG11	1	-0.261	76.7	0.465	75.8	inactive
PSG11	2	0.861	99	1.04	84.1	inactive
PSG11	3	2.77	137	2.95	70.3	inactive
SLC39A3	1	0.138	84.6	-0.403	105	inactive
SLC39A3	2	0.186	85.6	0.339	87.5	inactive
SLC39A3	3	1.11	104	0.748	95.3	inactive
NFIA	1	-0.098	79.9	0.408	80.2	inactive
NFIA	2	-1.04	61.2	-0.969	88.3	inactive
NFIA	3	-0.827	65.4	-0.914	93	inactive
SPECC1	1	0.087	83.6	0.0143	93.1	inactive
SPECC1	2	-0.354	74.8	-0.182	87.7	inactive
SPECC1	3	0.0228	82.3	-0.0644	93.6	inactive
ANO6	1	-0.462	72.7	-0.33	88.6	inactive
ANO6	2	-0.464	72.7	-0.331	88.6	inactive
ANO6	3	0.25	86.9	1.21	70.6	inactive
SMAP2	1	3.19	145	1.97	96.5	active
SMAP2	2	-0.215	77.6	-0.449	97.6	inactive
SMAP2	3	2.61	134	1.53	100	inactive
NAT16	1	-1.64	49.3	-1.49	81.6	inactive
NAT16	2	0.255	87	-0.13	101	inactive
NAT16	3	-0.24	77.1	-0.221	91.3	inactive
LGALS9	1	-1.01	61.8	-0.749	84.1	inactive
LGALS9	2	1.55	113	2.15	71.5	inactive
LGALS9	3	-1.19	58.2	-1.39	93.8	inactive
OSCP1	1	-1.26	56.8	-0.504	72.5	inactive
OSCP1	2	1.13	104	1.53	78	inactive
OSCP1	3	0.256	87	0.356	88.5	inactive
ZNF675	1	2.03	122	1.85	84.1	inactive
ZNF675	2	-1.48	52.4	-1.54	87.8	inactive
ZNF675	3	-0.451	72.9	0.19	77.5	inactive
CFAP70	1	-1.27	56.6	-1.85	103	inactive
CFAP70	2	-0.887	64.2	-0.908	91.2	inactive
CFAP70	3	-0.447	73	-0.00744	81.7	inactive
EXD1	1	0.584	93.5	0.0228	104	inactive
EXD1	2	0.235	86.6	0.23	91	inactive
EXD1	3	0.585	93.5	-0.361	115	inactive
MFAP2	1	0.301	87.9	0.417	88	inactive
MFAP2	2	1.15	105	0.526	102	inactive
MFAP2	3	1.4	110	0.626	104	inactive
TMEM233	1	-0.15	78.9	-0.969	114	inactive
TMEM233	2	0.778	97.4	0.33	99.7	inactive
TMEM233	3	-0.54	71.2	-1.02	104	inactive

A stretch taken from the entries so far, as a working copy:
gene symbol	reagent no.	total luciferase, z-score	total luciferase, % of control	luciferase per cell, z-score	viable cells, % of control	Outcome
ANO6	1	-0.462	72.7	-0.33	88.6	inactive
ANO6	2	-0.464	72.7	-0.331	88.6	inactive
ANO6	3	0.25	86.9	1.21	70.6	inactive
